Results published in PMC2565686.
These are yes or no findings as the source states them, for the method shown. In cells and extracts the contact can be indirect. Some entries that bind do so weakly or less than the wild type.

The chains behind the UniProt entries cited, without tags or fusion partners.
UniProt Q9Y6R4: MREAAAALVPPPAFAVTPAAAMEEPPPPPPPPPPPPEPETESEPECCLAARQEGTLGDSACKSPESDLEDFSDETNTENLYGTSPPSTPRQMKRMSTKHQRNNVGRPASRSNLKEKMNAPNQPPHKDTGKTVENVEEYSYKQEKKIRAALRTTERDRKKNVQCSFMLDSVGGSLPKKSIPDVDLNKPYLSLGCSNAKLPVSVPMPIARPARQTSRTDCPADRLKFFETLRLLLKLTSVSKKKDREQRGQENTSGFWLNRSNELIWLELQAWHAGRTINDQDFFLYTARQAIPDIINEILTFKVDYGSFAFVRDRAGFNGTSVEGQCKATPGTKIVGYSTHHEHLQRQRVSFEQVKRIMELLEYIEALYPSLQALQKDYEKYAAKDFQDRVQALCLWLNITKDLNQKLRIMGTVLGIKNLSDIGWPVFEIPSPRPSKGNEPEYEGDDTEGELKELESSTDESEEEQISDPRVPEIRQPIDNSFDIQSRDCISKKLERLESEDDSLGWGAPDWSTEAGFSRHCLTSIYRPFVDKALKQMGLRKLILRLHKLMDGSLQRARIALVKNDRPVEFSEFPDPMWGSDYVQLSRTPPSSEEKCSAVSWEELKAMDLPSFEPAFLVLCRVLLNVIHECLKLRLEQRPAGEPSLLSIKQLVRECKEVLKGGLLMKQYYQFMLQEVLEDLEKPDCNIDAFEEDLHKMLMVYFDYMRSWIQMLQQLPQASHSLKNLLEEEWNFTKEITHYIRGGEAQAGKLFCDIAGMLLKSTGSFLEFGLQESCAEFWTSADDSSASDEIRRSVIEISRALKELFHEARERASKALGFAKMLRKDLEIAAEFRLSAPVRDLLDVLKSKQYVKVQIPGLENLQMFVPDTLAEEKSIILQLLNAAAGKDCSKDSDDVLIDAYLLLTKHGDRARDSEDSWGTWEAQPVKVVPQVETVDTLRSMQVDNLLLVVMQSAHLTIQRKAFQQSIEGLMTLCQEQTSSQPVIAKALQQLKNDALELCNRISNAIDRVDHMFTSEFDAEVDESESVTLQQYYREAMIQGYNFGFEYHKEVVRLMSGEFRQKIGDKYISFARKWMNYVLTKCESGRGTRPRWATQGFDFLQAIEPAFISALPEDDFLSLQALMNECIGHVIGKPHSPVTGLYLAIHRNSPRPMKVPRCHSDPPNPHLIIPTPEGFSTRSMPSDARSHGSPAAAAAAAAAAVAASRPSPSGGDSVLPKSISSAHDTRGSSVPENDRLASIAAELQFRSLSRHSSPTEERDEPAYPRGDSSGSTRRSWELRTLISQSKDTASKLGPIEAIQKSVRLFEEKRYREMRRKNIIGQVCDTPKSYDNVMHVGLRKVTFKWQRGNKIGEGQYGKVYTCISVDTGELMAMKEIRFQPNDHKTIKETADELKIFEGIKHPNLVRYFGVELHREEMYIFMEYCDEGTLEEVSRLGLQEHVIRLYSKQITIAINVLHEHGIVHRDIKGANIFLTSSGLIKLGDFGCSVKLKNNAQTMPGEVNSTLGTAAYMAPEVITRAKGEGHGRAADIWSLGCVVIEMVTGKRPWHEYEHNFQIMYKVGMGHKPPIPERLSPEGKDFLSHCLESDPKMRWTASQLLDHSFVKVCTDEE
UniProt Q16539: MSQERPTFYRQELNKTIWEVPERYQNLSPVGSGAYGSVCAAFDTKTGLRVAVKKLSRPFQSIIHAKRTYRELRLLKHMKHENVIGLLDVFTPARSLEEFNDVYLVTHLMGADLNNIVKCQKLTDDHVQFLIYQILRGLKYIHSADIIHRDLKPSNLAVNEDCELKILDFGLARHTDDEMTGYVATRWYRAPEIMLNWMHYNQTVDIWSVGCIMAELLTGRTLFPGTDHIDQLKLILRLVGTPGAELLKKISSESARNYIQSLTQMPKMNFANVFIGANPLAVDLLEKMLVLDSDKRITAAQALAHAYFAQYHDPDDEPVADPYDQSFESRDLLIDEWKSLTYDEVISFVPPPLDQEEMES

Target: T1, ING1b (pCI-ING1b plasmid) (human) (UniProt Q9UK53)
T1 sequence: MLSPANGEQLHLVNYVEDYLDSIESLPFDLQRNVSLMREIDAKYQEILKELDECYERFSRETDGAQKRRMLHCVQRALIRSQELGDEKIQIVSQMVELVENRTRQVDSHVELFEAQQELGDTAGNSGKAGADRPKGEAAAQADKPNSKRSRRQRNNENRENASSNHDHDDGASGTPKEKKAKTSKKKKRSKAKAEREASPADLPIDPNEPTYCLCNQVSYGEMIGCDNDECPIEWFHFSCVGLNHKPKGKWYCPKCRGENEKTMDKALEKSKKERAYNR
Assay: co-IP; HEK293 cells transiently transfected with the indicated constructs, lysed in RIPA buffer, immunoprecipitated with anti-ING1, immunoblotted with anti-p38MAPK or anti-MEKK4; anti-GST immunoprecipitate as negative control

| binding | Substance |
| --- | --- |
| binds | overexpressed MEKK4 (from UniProt Q9Y6R4 1-1608) (enzyme) |
| binds | overexpressed p38MAPK (from UniProt Q16539 1-360) (enzyme) |
